Source: paper PMC7595633 (PLoS Neglected Tropical Diseases, 2020)
No constants are given. Whether binding was seen depends on the method and setting. Binding seen in cells or lysates may run through a third protein. These calls come from enrichment with a bait or labelling near it, and not all partners need be listed. For part of these data: A no says only that the protein was not detected with the bait.

Protein sequences, listed by entry. Tags and fused reporters are not part of them. Lines headed by an entry give the natural chain unless they say otherwise; changes in a name come on top.
UniProt Q38A45: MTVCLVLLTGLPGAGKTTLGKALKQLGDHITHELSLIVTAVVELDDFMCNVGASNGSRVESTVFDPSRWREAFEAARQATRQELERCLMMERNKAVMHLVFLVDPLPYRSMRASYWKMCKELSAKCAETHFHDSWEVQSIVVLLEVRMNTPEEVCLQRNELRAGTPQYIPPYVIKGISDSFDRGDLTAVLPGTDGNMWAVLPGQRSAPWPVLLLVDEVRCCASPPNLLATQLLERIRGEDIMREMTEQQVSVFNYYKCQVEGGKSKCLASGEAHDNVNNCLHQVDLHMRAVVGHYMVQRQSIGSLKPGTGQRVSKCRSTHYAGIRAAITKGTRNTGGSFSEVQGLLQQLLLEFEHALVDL
UniProt Q382M9: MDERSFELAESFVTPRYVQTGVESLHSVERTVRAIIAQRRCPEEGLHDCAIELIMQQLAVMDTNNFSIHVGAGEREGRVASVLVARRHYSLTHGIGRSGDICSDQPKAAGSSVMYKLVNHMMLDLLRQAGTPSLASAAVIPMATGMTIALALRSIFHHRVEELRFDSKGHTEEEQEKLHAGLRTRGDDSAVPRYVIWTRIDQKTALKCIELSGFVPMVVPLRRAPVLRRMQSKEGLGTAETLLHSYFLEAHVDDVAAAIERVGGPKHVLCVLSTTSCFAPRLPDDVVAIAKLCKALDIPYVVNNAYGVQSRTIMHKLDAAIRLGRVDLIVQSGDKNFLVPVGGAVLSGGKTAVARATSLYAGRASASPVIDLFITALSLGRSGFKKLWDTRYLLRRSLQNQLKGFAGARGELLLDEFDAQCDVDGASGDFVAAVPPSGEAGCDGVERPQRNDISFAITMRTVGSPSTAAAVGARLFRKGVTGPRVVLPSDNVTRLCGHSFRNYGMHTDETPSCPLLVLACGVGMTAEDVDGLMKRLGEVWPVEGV

T1: TbSEPHS2-PTP (Trypanosoma brucei) (UniProt Q38A34)
T1 sequence: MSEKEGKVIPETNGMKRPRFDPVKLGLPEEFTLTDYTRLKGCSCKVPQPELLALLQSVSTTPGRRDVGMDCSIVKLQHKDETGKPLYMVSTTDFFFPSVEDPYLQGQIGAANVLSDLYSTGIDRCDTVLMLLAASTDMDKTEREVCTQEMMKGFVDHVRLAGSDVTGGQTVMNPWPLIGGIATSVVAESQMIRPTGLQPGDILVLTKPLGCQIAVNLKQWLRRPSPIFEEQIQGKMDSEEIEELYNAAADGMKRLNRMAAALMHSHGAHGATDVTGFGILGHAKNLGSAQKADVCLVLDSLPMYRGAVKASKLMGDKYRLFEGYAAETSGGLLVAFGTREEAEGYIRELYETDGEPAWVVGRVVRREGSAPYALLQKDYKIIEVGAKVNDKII

B1: Trypanosoma brucei selenophosphate synthetase (TbSEPHS2), recombinant full-length (enzyme, UniProt Q38A34 1-393, looked up)
chain: T1 sequence
notes: selenophosphate synthetase SEPHS2 of Trypanosoma brucei, Tb927.10.9410, 393 residues (from the limits of the truncated constructs); also called SPS2; TbSPSH2

Key:
Assay in all cases: affinity purification with mass spectrometry; PTP tandem affinity purification (IgG Sepharose, TEV elution, anti-protein C matrix) from procyclic T. brucei lysate; SDS-PAGE bands (SYPRO Ruby) identified by LC-MS/MS
[1] = molecular target: T1, TbSEPHS2-PTP (Trypanosoma brucei)
[2] = molecular target: TbPSTK-PTP (phosphoseryl-tRNASec kinase of T. brucei, PTP-tagged) (Trypanosoma brucei) (UniProt Q38A45)
[3] = molecular target: TbSCLY-PTP (Trypanosoma brucei)
[4] = molecular target: TbeEFSec-PTP (tRNASec-specific elongation factor of T. brucei, PTP-tagged) (Trypanosoma brucei)

Molecule	binding [1]	binding [2]	binding [3]	binding [4]
TbSCLY, endogenous in procyclic T. brucei (enzyme)	binds			
TbSEPSECS, endogenous in procyclic T. brucei (from UniProt Q382M9) (enzyme)	no binding	binds		
B1		no binding	binds	no binding
